According to US20240366649A1, “4-ETHYNYL-3-HYDROXY-TETRAHYDROFURANYL-ADENINE PHOSPHORAMIDATES AND RELATED COMPOUNDS AND THEIR USE IN TREATING MEDICAL CONDITIONS” (ROME THERAPEUTICS, INC., priority 2021, published 2024):
The source holds more than one record for some entries. They are shown here; other results are not. An entry can have further records. Values that stand side by side appear to be repeats on other runs, samples or individuals.

Tested on: IFN production in THP1 TREX1 KO cells
Experiment: Cellular assay for altering IFN production in THP1 TREX1 KO cells
Conditions: lowest concentration at which the maximum-fold IFN induction was observed
Experimental: THP1-Dual™ KO-TREX1 cells were purchased from Invivogen (cat #thpd-kotrex). The THP1-Dual™ KO-TREX1 cells were cultured in RPMI 1640, 10% heat-inactivated fetal bovine serum, 25 mM HEPES, 10 μg/mL Blasticidin, and […] Zeocin. THP1-Dual™ KO-TREX cells were treated with a dose titration of test compound in the presence of 1 μM 5-aza-2′-deoxycytidine (Sigma, cat #189825). Type 1 Interferon and cell viability were assessed after five days of treatment.
Stock solution of test compound was prepared in DMSO followed by a three-fold dilution in DMSO. Additional 50× dilution was prepared in cell culture media for each dilution. 10 μL of diluted test compound was then added to a 384-well plate.
THP1-Dual™ KO-TREX1 cells were treated with 1 μM 5-aza-2′-deoxycytidine. THP1-Dual™ KO-TREX1 cells (50 μL) were added to each well of the 384-well plate containing test compound titration at 10,000 cells/well. Cells were incubated at 37° C., 5% CO2 in a humidified incubator for five days. On day five, 20 μL of cell supernatant was transferred to a 384-well, white-walled plate, followed by addition to each well of 50 μL of QUANTI-LUC solution containing stabilizer. Luminescence was detected on a plate reader according to manufacturer's instructions. […]

C#C[C@]1(COP(=O)(N[C@@H](C)C(=O)OCc2ccccc2)Oc2ccccc2)O[C@@H](n2cnc3c(N)nc(Cl)nc32)C[C@@H]1O (stereo partly shown)
Concentration at Max Induct.: 10 μM and 3.3 μM
